{"source": "PubChem BioAssay AID504808 (Drosophila RNAi Screening Center, 2011)", "assay": "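Fly genes required to hold E2F transcription in check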 (primary screen)", "system": "Drosophila S2 cells", "reagent": "long dsRNA against Drosophila genes", "measured": "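Firefly luciferase driven by E2F sites, normalised to Renilla luciferase on the same minimal promoter, measured by plate reader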", "scale": "E2F firefly: higher = more E2F reporter activity; Renilla normaliser: higher = more normaliser reporter signal", "hit rule": "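a knock-down counted as active when the firefly/Renilla E2F signal rose above 50%, a threshold chosen arbitrarily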", "note": "The screen tested about 21,000 reagents; shown is an unselected part of those with a known target gene and a result. Of all reagents, 18 (0.084%) are marked active. 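Raw counts without plate normalisation, one of two replicates; the ratio scores behind the calls were not deposited.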 Entries without a mark were called inactive. The numbers tell different reagents against one gene apart. Not stated in the record: the amount of reagent, the time to read-out."}
{"gene knocked down": "CG16959", "reagent": 1, "E2F firefly, rep 1": 67423, "Renilla normaliser, rep 1": 3324}
{"gene knocked down": "Sap30", "reagent": 1, "E2F firefly, rep 1": 2.38e5, "Renilla normaliser, rep 1": 6600}
{"gene knocked down": "nahoda", "reagent": 1, "E2F firefly, rep 1": 1.25e5, "Renilla normaliser, rep 1": 4155}
{"gene knocked down": "nahoda", "reagent": 2, "E2F firefly, rep 1": 81939, "Renilla normaliser, rep 1": 3321}
{"gene knocked down": "AttB", "reagent": 1, "E2F firefly, rep 1": 93735, "Renilla normaliser, rep 1": 4020}
{"gene knocked down": "CG42535", "reagent": 1, "E2F firefly, rep 1": 1.31e5, "Renilla normaliser, rep 1": 4682}
{"gene knocked down": "CG14644", "reagent": 1, "E2F firefly, rep 1": 1.39e5, "Renilla normaliser, rep 1": 7068}
{"gene knocked down": "CG7824", "reagent": 1, "E2F firefly, rep 1": 1.24e5, "Renilla normaliser, rep 1": 6654}
{"gene knocked down": "CG12237", "reagent": 1, "E2F firefly, rep 1": 1.67e5, "Renilla normaliser, rep 1": 5611}
{"gene knocked down": "Sec31", "reagent": 1, "E2F firefly, rep 1": 2748, "Renilla normaliser, rep 1": 216}
{"gene knocked down": "CR11235", "reagent": 1, "E2F firefly, rep 1": 1.34e5, "Renilla normaliser, rep 1": 5640}
{"gene knocked down": "atk", "reagent": 1, "E2F firefly, rep 1": 81329, "Renilla normaliser, rep 1": 4157}
{"gene knocked down": "atk", "reagent": 2, "E2F firefly, rep 1": 1.27e5, "Renilla normaliser, rep 1": 6651}

Taken from above:
For “Renilla normaliser, rep 1”, nahoda #2 has 3321
atk #1, E2F firefly, rep 1 → 81329
Value of Sap30 under “E2F firefly, rep 1”: 2.38e5
Entry for nahoda #1 under “Renilla normaliser, rep 1”: 4155

Additional results:
{"gene knocked down": "CG32628 (retired record)", "reagent": 1, "E2F firefly, rep 1": 90642, "Renilla normaliser, rep 1": 4653}
{"gene knocked down": "Fim", "reagent": 1, "E2F firefly, rep 1": 1.61e5, "Renilla normaliser, rep 1": 6030}
{"gene knocked down": "pcs", "reagent": 1, "E2F firefly, rep 1": 2981, "Renilla normaliser, rep 1": 186}
{"gene knocked down": "bib", "reagent": 1, "E2F firefly, rep 1": 75714, "Renilla normaliser, rep 1": 3428}
{"gene knocked down": "trn", "reagent": 1, "E2F firefly, rep 1": 1.30e5, "Renilla normaliser, rep 1": 5519}
{"gene knocked down": "Bap60", "reagent": 1, "E2F firefly, rep 1": 7206, "Renilla normaliser, rep 1": 788}
{"gene knocked down": "dgo", "reagent": 1, "E2F firefly, rep 1": 2739, "Renilla normaliser, rep 1": 189}
{"gene knocked down": "CG5569", "reagent": 1, "E2F firefly, rep 1": 97989, "Renilla normaliser, rep 1": 4782}
{"gene knocked down": "bond", "reagent": 1, "E2F firefly, rep 1": 56437, "Renilla normaliser, rep 1": 3012}
{"gene knocked down": "CG7214", "reagent": 1, "E2F firefly, rep 1": 97410, "Renilla normaliser, rep 1": 3627}
{"gene knocked down": "sing", "reagent": 1, "E2F firefly, rep 1": 1.52e5, "Renilla normaliser, rep 1": 6435}
{"gene knocked down": "esc", "reagent": 1, "E2F firefly, rep 1": 81643, "Renilla normaliser, rep 1": 3952}
{"gene knocked down": "p115", "reagent": 1, "E2F firefly, rep 1": 67625, "Renilla normaliser, rep 1": 4566}
{"gene knocked down": "p120ctn", "reagent": 1, "E2F firefly, rep 1": 1.00e5, "Renilla normaliser, rep 1": 4345}
{"gene knocked down": "CG34375", "reagent": 1, "E2F firefly, rep 1": 1.09e5, "Renilla normaliser, rep 1": 5586}
{"gene knocked down": "CG34375", "reagent": 2, "E2F firefly, rep 1": 96824, "Renilla normaliser, rep 1": 5162}
